Measured values reported in PubChem BioAssay AID493027 (The Scripps Research Institute Molecular Screening Center, 2011).
Out of some 2,000 compounds screened, about 45 (2%) were called active.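 Rule for the calls: active = inhibition above the screen-wide mean inhibition plus 3 SD (cut at about 44% in these data); inactive = the rest.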 The list shows a part of the results.

The chains behind the UniProt entries cited, without tags or fusion partners. Where a name states a change or a piece, a line headed by the entry shows the natural chain unless it says otherwise.
UniProt O60240: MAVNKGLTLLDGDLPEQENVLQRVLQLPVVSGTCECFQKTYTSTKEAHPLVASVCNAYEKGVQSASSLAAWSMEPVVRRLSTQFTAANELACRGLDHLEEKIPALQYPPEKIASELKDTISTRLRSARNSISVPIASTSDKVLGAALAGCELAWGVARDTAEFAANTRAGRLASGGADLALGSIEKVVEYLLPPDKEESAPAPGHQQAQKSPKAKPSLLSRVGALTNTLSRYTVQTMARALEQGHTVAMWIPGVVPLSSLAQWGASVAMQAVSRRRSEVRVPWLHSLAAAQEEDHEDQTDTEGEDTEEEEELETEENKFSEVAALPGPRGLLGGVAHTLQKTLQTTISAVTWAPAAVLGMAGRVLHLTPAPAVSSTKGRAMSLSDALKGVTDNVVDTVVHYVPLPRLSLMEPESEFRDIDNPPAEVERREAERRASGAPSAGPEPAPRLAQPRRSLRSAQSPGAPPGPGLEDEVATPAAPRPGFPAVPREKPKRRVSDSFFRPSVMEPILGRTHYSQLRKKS
UniProt Q8WTS1: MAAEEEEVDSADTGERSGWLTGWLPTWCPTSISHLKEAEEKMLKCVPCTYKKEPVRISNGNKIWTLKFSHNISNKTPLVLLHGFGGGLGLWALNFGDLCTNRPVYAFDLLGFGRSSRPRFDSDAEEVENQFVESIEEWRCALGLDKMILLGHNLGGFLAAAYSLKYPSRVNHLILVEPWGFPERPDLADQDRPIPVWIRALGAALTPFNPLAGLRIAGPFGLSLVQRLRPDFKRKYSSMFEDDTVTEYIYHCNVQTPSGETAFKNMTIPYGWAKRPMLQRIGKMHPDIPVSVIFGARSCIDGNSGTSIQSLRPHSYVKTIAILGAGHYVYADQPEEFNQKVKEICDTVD

What follows are compounds tested against Perilipin-1 (Homo sapiens) + 1-acylglycerol-3-phosphate O-acyltransferase ABHD5 (Homo sapiens) (UniProt O60240+Q8WTS1) (assay: ABHD5-PLIN1 interaction inhibitors, pilot screen, cell lysate, split luciferase complementation, luminescence, NIH validation set (AID 493027;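 note: 0% = DMSO wells with the 100% control not disclosed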)). Settings: split G. princeps luciferase complementation, 4 h; at 7.9 µM, active compounds read high.
In the case of `O=C(NC(=S)Nc1nc(-c2ccccc2)cs1)c1ccco1`, the inhibition is reported as inactive: 5.5%.
For `Cc1ccc(C)c(OCCCC(C)(C)C(=O)O)c1`, the inhibition was inactive: -12.4%.
For `c1ccc(SSc2ccccc2)cc1`, the inhibition was inactive: -5.29%.
For `COc1ccc2[nH]c(C)c(CN3CCC(C)CC3)c(=O)c2c1`, the inhibition was inactive: -4.96%.
`Cc1ccccc1C(=O)NCC(=O)O` was tested, and the inhibition was inactive: 0.22%.
With `CC(=O)CC(c1ccc([N+](=O)[O-])cc1)c1c(O)c2ccccc2oc1=O` (stereo not drawn) the inhibition was inactive: -0.92%.
`CCCCCCCCNC(C)C(O)c1ccc(SC(C)C)cc1` (stereo not drawn) was tested, and the inhibition was inactive: -26.2%.
`COc1cc2c(cc1OC)C1(CCCCC1)CN(C)C2` was tested, and the inhibition was inactive: -0.02%.
`O=c1[nH]c(=O)n([C@H]2C[C@H](O)[C@@H](CO)O2)cc1C(F)(F)F` was tested, and the inhibition was inactive: -13.5%.
In the case of `CC(C)C(=O)Nc1ccc2c3c(cccc13)CC2`, the inhibition is reported as inactive: -2.98%.
With `Cc1nnc(SCC2=C(C(=O)O)N3C(=O)[C@@H](NC(=O)Cn4cnnn4)[C@H]3SC2)s1` the inhibition was inactive: -11.7%.
For `O=CNC1CCCc2c1[nH]c1ccc(Cl)cc21` (stereo not drawn), the inhibition was inactive: -6.27%.
With `CCCC(=O)O[C@]1(C(=O)CO)CC[C@H]2[C@@H]3CCC4=CC(=O)CC[C@]4(C)[C@H]3[C@@H](O)C[C@@]21C` the inhibition was inactive: 5.44%.
For `O=c1cc(CN2CCN(c3cccc(Cl)c3)CC2)c2cc(O)c(-c3ccccc3)cc2o1`, the inhibition was inactive: 1.13%.
With `COc1ccc2oc(=O)c(-c3nc(C)cs3)cc2c1` the inhibition was inactive: -14.4%.
For `Cc1ccccc1OCCSc1nc2ncnc(N)c2[nH]1`, the inhibition was inactive: -5.5%.
`COc1ccc2nc(S(=O)Cc3ncc(C)c(OC)c3C)[nH]c2c1` (stereo not drawn) was tested, and the inhibition was inactive: 2.38%.
With `Clc1ccc2c(c1)[C@H]1OCC[C@H]1[C@@H](c1ccco1)N2` the inhibition was inactive: 12.8%.
`COc1ccc2cc(C3(C)NC(=O)NC3=O)ccc2c1` (stereo not drawn) was tested, and the inhibition was inactive: -12%.
With `CC12CCC(C(=O)Nc3ccccc3Br)(C/C1=N\O)C2(C)C` (stereo not drawn) the inhibition was inactive: -9.17%.
In the case of `CC12CCC(C(=O)N3CCc4ccccc43)(CC1=O)C2(C)C` (stereo not drawn), the inhibition is reported as inactive: -4.62%.
With `CCOC(=O)c1ccc(NC(=S)NCCc2ccccc2F)cc1` the inhibition was inactive: -11.7%.
For `NC(=O)N1c2ccccc2CC(=O)c2ccccc21`, the inhibition was inactive: -5.17%.
`CC(C)c1ccc(OCc2ccc(C(=O)O)o2)cc1` was tested, and the inhibition was inactive: -1.73%.
For `O=C(c1ccco1)N1CCCN(Cc2nc(-c3ccc4c(c3)OCO4)no2)CC1`, the inhibition was inactive: 7.12%.
With `COc1ccc(C2=CC(=O)C=CC2=O)cc1` the inhibition was active: 73.7%.
In the case of `CCOC(=O)c1ccc(N2C(=O)C(CC(=O)NC)N(CCc3ccc(OC)c(OC)c3)C2=S)cc1` (stereo not drawn), the inhibition is reported as inactive: -0.54%.
For `COc1ccc2c(c1)C=CC1(O2)N(CCO)c2ccccc2C1(C)C` (stereo not drawn), the inhibition was active: 45.5%.
`O=Cc1ccc(N2CCCCC2)cc1` was tested, and the inhibition was inactive: 0.88%.
With `C[C@]12CC[C@H]3[C@@H](CCC4=CC(=O)CC[C@@]43C)[C@@H]1CC[C@@H]2C(=O)CO` the inhibition was inactive: 3.39%.
For `COc1cc(C=NCC2OCCc3ccccc32)cc(OC)c1` (stereo not drawn), the inhibition was inactive: -11%.
In the case of `COc1cc(NS(=O)(=O)c2ccc(N)cc2)nc(OC)n1`, the inhibition is reported as inactive: -13.6%.
With `O=C(O)c1cc(-c2ccc3c(c2)OCO3)nc2ccc(Br)cc12` the inhibition was inactive: -1.85%.
`CC12COC3(C(=O)Nc4ccc(F)cc4)CC1CCC32C` (stereo not drawn) was tested, and the inhibition was inactive: -6.36%.
For `NS(=O)(=O)c1cc2c(cc1C(F)(F)F)NC(Cc1ccccc1)NS2(=O)=O` (stereo not drawn), the inhibition was inactive: 3.91%.
For `COc1ccc([C@H]2[C@H](C(=O)OC(C)(C)C)N3N=Cc4ccccc4C3C23C(=O)c2ccccc2C3=O)cc1OC` (stereo partly drawn), the inhibition was inactive: -11.4%.
In the case of `O=C(N/C(=C/C=C\c1ccccc1)C(=O)N1CCOCC1)c1ccc(Br)cc1`, the inhibition is reported as inactive: 2.29%.
For `CC(CN1c2ccccc2Sc2ccccc21)N(C)C` (stereo not drawn), the inhibition was inactive: -9.88%.
In the case of `COc1ccc(NC(=O)N2CCCCC2c2cccnc2)cc1` (stereo not drawn), the inhibition is reported as inactive: -9.64%.
In the case of `Cc1cc(OCC(=O)C(C)(C)C)c2c(C)c(C)c(=O)oc2c1`, the inhibition is reported as inactive: -3.63%.
`CCOC(=O)c1c(O)c2c([nH]c1=O)CCCC2` was tested, and the inhibition was inactive: -10%.
With `Cc1ccc(OCCSc2ncccn2)c(C)c1` the inhibition was inactive: -4.71%.
With `O=C(Cc1ccccc1[N+](=O)[O-])NCc1ccncc1` the inhibition was inactive: -10.2%.
`CC1(C)CC(=O)c2cn3c(nc2C1)nc1ccccc13` was tested, and the inhibition was inactive: -6.06%.
`Cc1ccc(C(=O)O)cc1NC(=O)c1cccs1` was tested, and the inhibition was inactive: -7.22%.
`O=C(NCCc1c[nH]c2ccccc12)OCCSS(=O)(=O)O` was tested, and the inhibition was inactive: -17.4%.
`CCn1cc(C(=O)O)c(=O)c2cc(F)c(N3CCNCC3)cc21` was tested, and the inhibition was inactive: 0.57%.
In the case of `Cc1ccc(N2C(=O)c3ccccc3C2=O)cc1C`, the inhibition is reported as inactive: -2.87%.
In the case of `CN(CCc1cnn(C)c1)Cc1nc(CC2CC2)no1`, the inhibition is reported as inactive: 2.86%.
For `CCOC(=O)c1ccc2[nH]c(C)c(CCC(C)=O)c(=O)c2c1`, the inhibition was inactive: -7.73%.
`CCOC(=O)C1=C(C)NC(C)=C(C(=O)OC)C1c1cccc([N+](=O)[O-])c1` (stereo not drawn) was tested, and the inhibition was inactive: 8.95%.
For `CC(=Nc1ccccc1)C1=C(O)CCCC1=O`, the inhibition was inactive: 2.51%.
`O=c1c(C(c2ccccc2)c2c(O)sc3ccccc3c2=O)c(O)sc2ccccc12` was tested, and the inhibition was inactive: 0.1%.
For `CCCCOc1ccc(OCCCN2CCOCC2)cc1`, the inhibition was inactive: -2.99%.
`COc1cc2ccc(=O)oc2c(O)c1OCC=C(C)C` was tested, and the inhibition was inactive: -7.81%.
In the case of `COc1ccccc1C(=O)N=C1NC(=O)CC2C(=O)NCCN12` (stereo not drawn), the inhibition is reported as inactive: -15.4%.
In the case of `CC(=O)c1c[nH]c2ccc(C)cc2c1=O`, the inhibition is reported as inactive: -1%.
In the case of `O=C(NCC1CCCCN1)c1cc(OCC(F)(F)F)ccc1OCC(F)(F)F` (stereo not drawn), the inhibition is reported as inactive: 2.26%.
With `CC1CCc2cc(F)cc3c(=O)c(C(=O)O)cn1c23` (stereo not drawn) the inhibition was inactive: 4.36%.
For `CC1(C)CC(CC(=O)Nc2nccs2)(c2ccccc2)CCO1` (stereo not drawn), the inhibition was inactive: -1.2%.
`Cc1ccc2c(c1)C1CN(C)CCC1N2S(=O)(=O)c1ccc(Oc2ccc([N+](=O)[O-])cc2)cc1` (stereo not drawn) was tested, and the inhibition was inactive: -5.75%.
For `COc1cccc(N2C(=O)[C@H]3C(C(=O)c4cnccn4)=NN[C@H]3C2=O)c1`, the inhibition was inactive: 5.7%.
In the case of `COc1ccc(CNC(=O)N[C@H](C(=O)O)C(C)C)cc1OC`, the inhibition is reported as inactive: -7.79%.
With `CS(=O)(=O)NCc1ccc(C(=O)NCc2ccccc2)cc1` the inhibition was inactive: -12.2%.
For `C/C(=N/N1CCN(Cc2cccc3ccccc23)CC1)c1cccnc1`, the inhibition was inactive: -7.82%.
For `Cc1cccc(Nc2ncccc2C(=O)O)c1C`, the inhibition was inactive: -0.47%.
For `CC1(C)CC(=O)C(C2=NC(C)(C)Cc3ccccc32)=C(O)C1`, the inhibition was inactive: -6.62%.
With `O=C1CCCCCN1Cc1ccccc1` the inhibition was inactive: -0.49%.
With `C#CCOc1ccc2c(C)cc(=O)oc2c1` the inhibition was inactive: 1.91%.
`Cc1ccc2c(c1)OC(=O)CC2c1ccccc1` (stereo not drawn) was tested, and the inhibition was inactive: -5.39%.
`COCc1cc(=O)[nH]c(/N=C(\N)Nc2ccc(Oc3ccccc3)cc2)n1` was tested, and the inhibition was inactive: -1.38%.
For `N/C(=N\OC(=O)CCCOc1ccc(Cl)cc1Cl)c1ccncc1`, the inhibition was inactive: 6.23%.
`CCOc1cc2c3c(c1)C(C)=CC(C)(C)N3C(=O)C2=O` was tested, and the inhibition was active: 43.5%.
In the case of `CCn1c(N2CCN(CC(=O)c3c(C)n(C)c4ccc(OC)cc34)CC2)nc2c1c(=O)[nH]c(=O)n2C`, the inhibition is reported as inactive: 5.86%.
`COc1cc(C(=S)N(C)C)ccc1O` was tested, and the inhibition was inactive: -6.41%.
For `COc1ccc(C(=O)OCc2cc3cccc(C)c3[nH]c2=O)cc1`, the inhibition was inactive: -1.47%.
With `COc1ccc(CCN(C)Cc2nc(Cc3ccc(OC)c(OC)c3)no2)cc1OC` the inhibition was inactive: -1.79%.
`Nc1nc2c(nc(SCc3ccccc3Br)n2C2OC(CO)C(O)C2O)c(=O)[nH]1` (stereo not drawn) was tested, and the inhibition was inactive: 5.62%.
`Cc1ccc(SCC(=O)Nc2nccs2)cc1` was tested, and the inhibition was inactive: 7.01%.
In the case of `Cc1nc(N)nc2c1CCCC2`, the inhibition is reported as inactive: -5.16%.
With `CC[n+]1c(C)sc2cc(C)ccc21` the inhibition was inactive: 0.88%.
With `CCc1cc(=O)oc2cc3occ(-c4ccc(OC)c(F)c4)c3cc12` the inhibition was inactive: 11%.
In the case of `CSc1ccc(CN2CCN(CCC(C)C)C(CCO)C2)cc1` (stereo not drawn), the inhibition is reported as inactive: -2.37%.
With `COc1ccc2cc(C(=O)Nc3ccc(S(N)(=O)=O)cc3)sc(=O)c2c1OC` the inhibition was inactive: -9.77%.
`Cc1ccc(NC(=O)CSc2nc(O)c(Cc3ccccc3)c(=O)n2-c2ccccc2)cc1` was tested, and the inhibition was inactive: 5.86%.
For `COCCCN1C(=O)C(=O)/C(=C(/O)c2ccc3c(c2)CC(C)O3)C1c1cccnc1` (stereo not drawn), the inhibition was inactive: -10.4%.
`COc1ccc(C(=O)c2oc3ccc(Br)cc3c2NC(C)=O)cc1` was tested, and the inhibition was inactive: 5.9%.
For `O=C(CC1(O)C(=O)Nc2ccccc21)c1ccccc1O` (stereo not drawn), the inhibition was inactive: -0.86%.
For `COc1ccc(-c2coc3cc(O)cc(O)c3c2=O)cc1`, the inhibition was inactive: 7.76%.
`COc1ccccc1C1C(C#N)=C(N)Oc2c1oc(CO)cc2=O` (stereo not drawn) was tested, and the inhibition was inactive: -5.22%.
With `CC(C)C[C@H](NC(=O)NC(C)C)C(=O)O` the inhibition was inactive: -4.72%.
For `CN(C)CCC(c1ccc(Cl)cc1)c1ccccn1` (stereo not drawn), the inhibition was inactive: 2.13%.
For `OCC(O)CN1CCN(c2ccccc2)CC1` (stereo not drawn), the inhibition was inactive: -1.28%.
In the case of `CCOC(=O)c1ccccc1NC(=O)c1ccc(F)cc1`, the inhibition is reported as inactive: -4.45%.
For `O=C(Cc1cccc2ccccc12)N1CC[C@@]2(O)CCCC[C@H]2C1`, the inhibition was inactive: -2.39%.
In the case of `CC1(C)CC(=O)C(C(=O)CCCCC(=O)C2C(=O)CC(C)(C)CC2=O)C(=O)C1`, the inhibition is reported as inactive: -7.35%.
With `CCOC(=O)C1C(=O)OC(C)(C)C1C(C)C(=O)c1ccc(C)cc1` (stereo not drawn) the inhibition was inactive: 2.95%.
With `Cc1ccc(S(=O)(=O)N[C@@H](C)C(=O)N2CCC(C(=O)N3CCC[C@H]3C(=O)O)CC2)cc1` the inhibition was inactive: -8.3%.
